From the supplement of paper PMC10849652
This is one part of the list.

Amino acid sequences for entries named in this document (tags omitted). A change or cut given only in a name is not applied to a line headed by its entry.
UniProt Q9H0U4: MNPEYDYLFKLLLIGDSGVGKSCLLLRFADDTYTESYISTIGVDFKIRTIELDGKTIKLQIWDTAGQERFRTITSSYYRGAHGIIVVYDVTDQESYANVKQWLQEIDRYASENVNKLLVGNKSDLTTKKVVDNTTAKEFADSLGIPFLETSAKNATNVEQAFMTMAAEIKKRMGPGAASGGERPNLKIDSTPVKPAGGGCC
UniProt Q96E17: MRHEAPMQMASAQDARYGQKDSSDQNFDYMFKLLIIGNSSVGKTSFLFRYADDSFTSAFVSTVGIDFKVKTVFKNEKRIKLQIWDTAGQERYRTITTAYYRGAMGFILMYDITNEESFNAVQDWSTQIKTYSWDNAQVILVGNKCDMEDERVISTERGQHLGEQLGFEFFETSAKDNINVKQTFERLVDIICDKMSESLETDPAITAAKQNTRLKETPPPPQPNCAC
UniProt Q16576, whole entry, looked up: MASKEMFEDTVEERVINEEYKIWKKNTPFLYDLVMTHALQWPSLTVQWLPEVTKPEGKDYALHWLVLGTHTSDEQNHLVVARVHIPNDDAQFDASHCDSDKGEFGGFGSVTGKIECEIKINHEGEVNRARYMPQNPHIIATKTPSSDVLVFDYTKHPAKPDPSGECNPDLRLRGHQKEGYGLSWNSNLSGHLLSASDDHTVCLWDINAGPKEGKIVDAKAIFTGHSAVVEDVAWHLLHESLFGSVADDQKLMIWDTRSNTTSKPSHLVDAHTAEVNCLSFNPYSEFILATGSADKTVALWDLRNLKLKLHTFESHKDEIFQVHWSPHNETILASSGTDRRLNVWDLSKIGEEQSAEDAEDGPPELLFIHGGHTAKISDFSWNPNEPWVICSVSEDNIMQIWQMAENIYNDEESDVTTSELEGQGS
UniProt P20340: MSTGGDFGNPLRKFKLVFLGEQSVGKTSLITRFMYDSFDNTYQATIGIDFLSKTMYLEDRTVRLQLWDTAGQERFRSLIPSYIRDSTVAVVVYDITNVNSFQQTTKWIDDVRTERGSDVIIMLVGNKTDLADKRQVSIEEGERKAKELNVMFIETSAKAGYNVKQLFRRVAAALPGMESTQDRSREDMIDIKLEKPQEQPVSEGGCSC
UniProt P62834: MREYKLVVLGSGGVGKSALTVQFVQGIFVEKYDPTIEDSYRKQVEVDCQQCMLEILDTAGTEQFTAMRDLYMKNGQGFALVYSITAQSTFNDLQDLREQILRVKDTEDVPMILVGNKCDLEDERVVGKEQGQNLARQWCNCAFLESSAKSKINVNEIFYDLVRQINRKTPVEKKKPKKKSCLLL
UniProt Q99638: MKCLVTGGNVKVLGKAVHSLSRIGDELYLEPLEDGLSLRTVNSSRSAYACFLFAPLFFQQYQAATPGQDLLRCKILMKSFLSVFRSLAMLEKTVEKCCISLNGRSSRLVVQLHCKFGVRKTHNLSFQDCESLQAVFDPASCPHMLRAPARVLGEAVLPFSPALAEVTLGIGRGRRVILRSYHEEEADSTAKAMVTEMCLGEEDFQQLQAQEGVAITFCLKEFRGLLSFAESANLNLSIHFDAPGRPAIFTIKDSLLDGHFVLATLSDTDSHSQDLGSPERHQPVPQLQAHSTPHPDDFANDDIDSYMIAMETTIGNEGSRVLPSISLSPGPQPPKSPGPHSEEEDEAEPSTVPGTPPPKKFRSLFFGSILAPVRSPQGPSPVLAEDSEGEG
UniProt Q9UL25: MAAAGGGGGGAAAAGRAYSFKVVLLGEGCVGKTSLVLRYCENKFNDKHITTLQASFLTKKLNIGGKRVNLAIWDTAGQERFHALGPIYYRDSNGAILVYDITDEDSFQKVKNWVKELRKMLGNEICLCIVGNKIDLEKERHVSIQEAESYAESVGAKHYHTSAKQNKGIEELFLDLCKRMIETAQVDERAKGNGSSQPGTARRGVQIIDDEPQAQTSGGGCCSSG
UniProt Q15276: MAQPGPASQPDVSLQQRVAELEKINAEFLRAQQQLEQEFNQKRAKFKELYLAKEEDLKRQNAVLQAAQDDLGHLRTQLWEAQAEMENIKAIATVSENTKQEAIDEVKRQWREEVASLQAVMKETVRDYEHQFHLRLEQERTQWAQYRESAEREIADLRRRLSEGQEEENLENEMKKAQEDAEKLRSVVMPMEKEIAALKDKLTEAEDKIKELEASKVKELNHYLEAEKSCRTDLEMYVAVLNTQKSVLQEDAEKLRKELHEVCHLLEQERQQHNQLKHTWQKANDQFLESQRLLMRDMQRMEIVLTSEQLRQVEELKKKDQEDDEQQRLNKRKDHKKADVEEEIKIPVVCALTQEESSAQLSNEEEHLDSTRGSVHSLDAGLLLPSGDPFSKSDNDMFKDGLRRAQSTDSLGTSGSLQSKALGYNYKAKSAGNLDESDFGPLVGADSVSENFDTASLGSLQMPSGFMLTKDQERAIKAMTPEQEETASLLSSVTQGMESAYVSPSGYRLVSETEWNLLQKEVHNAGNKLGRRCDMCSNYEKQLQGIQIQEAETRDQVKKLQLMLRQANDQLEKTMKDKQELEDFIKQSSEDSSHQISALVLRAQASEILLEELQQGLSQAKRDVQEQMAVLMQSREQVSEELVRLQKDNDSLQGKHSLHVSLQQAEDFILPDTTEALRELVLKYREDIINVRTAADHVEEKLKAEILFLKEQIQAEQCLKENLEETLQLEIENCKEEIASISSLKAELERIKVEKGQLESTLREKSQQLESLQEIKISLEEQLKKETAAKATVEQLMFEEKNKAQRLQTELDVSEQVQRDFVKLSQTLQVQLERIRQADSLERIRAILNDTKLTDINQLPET
UniProt P51153: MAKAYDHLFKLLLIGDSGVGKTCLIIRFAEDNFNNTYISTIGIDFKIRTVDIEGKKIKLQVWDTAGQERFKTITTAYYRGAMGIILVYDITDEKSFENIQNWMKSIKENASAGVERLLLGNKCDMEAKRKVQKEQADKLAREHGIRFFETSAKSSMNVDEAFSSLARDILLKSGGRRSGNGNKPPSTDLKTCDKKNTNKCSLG
UniProt P61019: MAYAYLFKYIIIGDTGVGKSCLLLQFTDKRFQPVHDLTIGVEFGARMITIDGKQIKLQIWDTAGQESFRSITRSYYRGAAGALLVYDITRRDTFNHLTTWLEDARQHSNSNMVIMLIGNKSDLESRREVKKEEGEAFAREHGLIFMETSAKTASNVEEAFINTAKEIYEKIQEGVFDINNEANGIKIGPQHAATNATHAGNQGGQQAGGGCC
UniProt Q9H0H5: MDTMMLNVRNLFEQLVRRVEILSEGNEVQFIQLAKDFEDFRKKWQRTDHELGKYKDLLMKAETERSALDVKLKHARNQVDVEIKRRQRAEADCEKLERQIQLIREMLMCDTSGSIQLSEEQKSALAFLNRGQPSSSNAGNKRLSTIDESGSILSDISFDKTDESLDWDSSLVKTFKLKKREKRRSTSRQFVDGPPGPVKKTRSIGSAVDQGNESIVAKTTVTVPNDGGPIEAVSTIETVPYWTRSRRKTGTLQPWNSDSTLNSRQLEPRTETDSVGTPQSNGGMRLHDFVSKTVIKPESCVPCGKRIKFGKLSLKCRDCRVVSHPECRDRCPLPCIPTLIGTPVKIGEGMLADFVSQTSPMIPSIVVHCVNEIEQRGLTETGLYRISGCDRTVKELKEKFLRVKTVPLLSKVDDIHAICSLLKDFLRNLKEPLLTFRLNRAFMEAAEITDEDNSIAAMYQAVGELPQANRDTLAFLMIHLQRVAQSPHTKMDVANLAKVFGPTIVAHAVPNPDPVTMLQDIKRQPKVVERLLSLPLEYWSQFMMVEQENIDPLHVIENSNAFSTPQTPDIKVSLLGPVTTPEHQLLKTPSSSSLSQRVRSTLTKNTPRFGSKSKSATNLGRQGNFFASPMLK
UniProt P62491: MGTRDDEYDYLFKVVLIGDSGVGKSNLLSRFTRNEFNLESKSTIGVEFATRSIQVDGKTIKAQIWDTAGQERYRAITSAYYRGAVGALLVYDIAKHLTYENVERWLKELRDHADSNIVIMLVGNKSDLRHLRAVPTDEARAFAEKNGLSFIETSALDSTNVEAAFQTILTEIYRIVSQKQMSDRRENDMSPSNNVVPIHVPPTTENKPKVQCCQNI
UniProt P51149, whole entry, looked up: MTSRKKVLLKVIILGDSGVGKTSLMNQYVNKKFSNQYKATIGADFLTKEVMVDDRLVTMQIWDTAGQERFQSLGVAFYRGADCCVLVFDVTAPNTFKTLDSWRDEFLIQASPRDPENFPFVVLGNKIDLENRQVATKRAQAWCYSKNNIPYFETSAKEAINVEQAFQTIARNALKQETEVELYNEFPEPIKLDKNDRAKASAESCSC
UniProt O60671: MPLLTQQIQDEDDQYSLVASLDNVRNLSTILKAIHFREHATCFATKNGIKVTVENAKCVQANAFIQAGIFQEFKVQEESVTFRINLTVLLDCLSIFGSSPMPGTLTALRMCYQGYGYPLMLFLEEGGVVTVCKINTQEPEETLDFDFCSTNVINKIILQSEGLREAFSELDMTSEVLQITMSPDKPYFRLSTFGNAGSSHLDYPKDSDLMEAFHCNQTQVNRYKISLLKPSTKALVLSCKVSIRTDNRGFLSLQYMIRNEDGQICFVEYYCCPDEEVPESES
UniProt Q5T8P6: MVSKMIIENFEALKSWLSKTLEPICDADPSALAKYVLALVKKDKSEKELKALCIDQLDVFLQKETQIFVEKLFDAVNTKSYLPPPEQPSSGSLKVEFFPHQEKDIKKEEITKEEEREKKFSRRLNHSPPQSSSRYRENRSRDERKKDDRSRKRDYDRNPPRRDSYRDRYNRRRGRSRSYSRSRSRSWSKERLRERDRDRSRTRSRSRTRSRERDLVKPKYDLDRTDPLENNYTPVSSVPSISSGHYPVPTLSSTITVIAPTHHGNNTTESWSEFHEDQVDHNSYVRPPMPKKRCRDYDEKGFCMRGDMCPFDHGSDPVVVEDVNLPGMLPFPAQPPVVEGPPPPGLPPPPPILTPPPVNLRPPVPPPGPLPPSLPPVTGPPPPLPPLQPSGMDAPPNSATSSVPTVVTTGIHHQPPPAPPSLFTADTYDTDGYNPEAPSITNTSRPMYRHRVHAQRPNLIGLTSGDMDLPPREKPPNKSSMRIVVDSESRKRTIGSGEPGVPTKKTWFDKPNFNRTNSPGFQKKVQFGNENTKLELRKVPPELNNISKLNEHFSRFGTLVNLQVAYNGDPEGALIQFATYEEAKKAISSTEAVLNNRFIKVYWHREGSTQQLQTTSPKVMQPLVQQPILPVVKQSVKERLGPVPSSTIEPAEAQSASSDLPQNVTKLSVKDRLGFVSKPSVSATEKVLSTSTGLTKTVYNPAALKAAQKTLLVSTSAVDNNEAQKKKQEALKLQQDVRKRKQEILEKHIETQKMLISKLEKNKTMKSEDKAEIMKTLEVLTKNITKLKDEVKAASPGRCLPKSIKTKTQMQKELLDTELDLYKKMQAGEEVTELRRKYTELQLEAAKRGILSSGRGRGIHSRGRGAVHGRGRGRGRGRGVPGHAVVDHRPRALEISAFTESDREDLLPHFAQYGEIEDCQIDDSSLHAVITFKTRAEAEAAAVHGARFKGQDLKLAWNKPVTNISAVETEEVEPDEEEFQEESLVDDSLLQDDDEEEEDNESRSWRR
UniProt P53611: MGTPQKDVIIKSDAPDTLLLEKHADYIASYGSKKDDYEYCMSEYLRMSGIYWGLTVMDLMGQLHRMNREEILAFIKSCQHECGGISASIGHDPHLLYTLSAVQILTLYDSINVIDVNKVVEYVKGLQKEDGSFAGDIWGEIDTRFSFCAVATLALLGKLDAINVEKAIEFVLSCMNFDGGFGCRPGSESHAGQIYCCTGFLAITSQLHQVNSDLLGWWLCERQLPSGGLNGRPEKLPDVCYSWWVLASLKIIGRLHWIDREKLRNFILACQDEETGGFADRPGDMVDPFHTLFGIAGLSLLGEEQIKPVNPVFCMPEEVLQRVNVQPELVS

Experiments:
Assay in all cases: log2 fold change, soluble protein after heating vs DMSO (PISA); higher = thermal stabilisation; K562 cells, 10 uM, 30 min; active = over 0.2 and 3.5 SD of the protein, either way, in both replicates (recomputed)
[1] = compound: CC1=C(C=C(C=C1)NC(=O)C2=CC(=CC=C2)C(C)(C)C#N)NC3=CC4=C(C=C3)N=CN(C4=O)C
In short: (§1)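 Thermal stability values are relative to control samples and come from duplicates. They are expressed as log2 fold changes. For measurement, K562 cells (2×10^6 cells/mL) received 10 μM compound for 30 min, and aliquots were heated for 3 min over 48°C-58°C, pooled, and extracted at 4°C in PBS with 0.5% NP-40. Soluble protein, the supernatant after 21,000xg for 90 min, was quantified by TMTpro 16plex LC-MS/MS with equalised channel sums.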

[2] = compound: CC1=C(C=C(C=C1)NC(=O)C2=CC(=CC=C2)N(C)C)NC(=O)C3=CC=C(C=C3)O
In short: as §1

[3] = compound: CC1=CC=C(C=C1)SC2=C3C=C(SC3=CN=C2)C(=O)N
In short: as §1

[4] = compound: CC1=NC(=CC=C1)C2=C(N=C(N2)C(C)(C)C)C3=CC4=NC=CN=C4C=C3
In short: as §1

Nexturastat A = compound: CCCCN(Cc1ccc(C(=O)NO)cc1)C(=O)Nc1ccccc1 [Nexturastat A]
In short: as §1

vemurafenib = compound: CCCS(=O)(=O)Nc1ccc(F)c(C(=O)c2c[nH]c3ncc(-c4ccc(Cl)cc4)cc23)c1F [vemurafenib]
In short: as §1

[5] = compound: CCCS(=O)(=O)Nc1ccc(F)c(C(=O)c2c[nH]c3ncc(Cl)cc23)c1F
In short: as §1

[6] = compound: CCCc1cc(C)[nH]c(=O)c1CNC(=O)c1cc(-c2ccnc(N3CCN(C)CC3)c2)cc2c1cnn2C(C)C
In short: as §1

givinostat = compound: CCN(CC)Cc1ccc2cc(COC(=O)Nc3ccc(C(=O)NO)cc3)ccc2c1 [givinostat]
In short: as §1

barasertib = compound: CCN(CCCOc1ccc2c(Nc3cc(CC(=O)Nc4cccc(F)c4)[nH]n3)ncnc2c1)CCOP(=O)(O)O [barasertib]
In short: as §1

[7] = compound: CC[C@@H]1C(=O)N(C)c2cnc(Nc3ccc(C(=O)NC4CCN(C)CC4)cc3OC)nc2N1C1CCCC1
In short: as §1

volasertib = compound: CC[C@@H]1C(=O)N(C)c2cnc(Nc3ccc(C(=O)N[C@H]4CC[C@H](N5CCN(CC6CC6)CC5)CC4)cc3OC)nc2N1C(C)C [volasertib]
In short: as §1

[8] = compound: CC[C@H](C)N1C=C(C2=C(C=C(C=C21)C3=CN=C(C=C3)N4CCNCC4)C(=O)NCC5=C(C=C(NC5=O)C)C)C
In short: as §1

epoxomicin = compound: CC[C@H](C)[C@@H](C(=O)N[C@@H]([C@@H](C)O)C(=O)N[C@@H](CC(C)C)C(=O)[C@]1(CO1)C)NC(=O)[C@H]([C@@H](C)CC)N(C)C(=O)C [epoxomicin]
In short: as §1

[9] = compound: CCn1c(C(=O)N(C2CC2)C2CC2)cc2c3c(ncn3C)c(Nc3cc(C)n(C)n3)nc21
In short: as §1

[10] = compound: CCn1cc(-c2ccnc3[nH]c(-c4cccc(CN(C)C)c4)cc23)c(-c2ccc(NC(=O)N(C)C)cc2)n1
In short: as §1

[11] = compound: CN(C)CC(=O)Nc1ccc2[nH]c(=O)c3ccccc3c2c1
In short: as §1

rosiglitazone = compound: CN(CCOC1=CC=C(C=C1)C[C@H]2C(=O)NC(=O)S2)C3=CC=CC=N3 (racemic) [rosiglitazone]
In short: as §1

[12] = compound: CN1C2=C(C3=C1C(=O)N(N=C3)CC4=CC(=CC=C4)N)SC(=C2)S(=O)C
In short: as §1

[13] = compound: CN1CCC(CNc2ccc3ncc(-c4cccc(OC(F)(F)F)c4)n3n2)CC1
In short: as §1

Measured: log2 fold change

RAB1B (UniProt Q9H0U4)
inactive: [1] 0.03 | [2] 0.026 | [3] -0.035 | [4] 0.067 | Nexturastat A -0.063 | vemurafenib -0.037 | [5] -0.064 | [6] -0.234 | givinostat 0.017 | barasertib -0.007 | [7] -0.015 | volasertib 0.063 | [8] -0.087 | epoxomicin -0.004 | [9] 0.023 | [10] -0.006 | [11] -0.039 | rosiglitazone 0.058 | [12] -0.075 | [13] 0.054

RAB3C (UniProt Q96E17)
inactive: [1] -0.032 | [2] -0.042 | [3] -0.032 | [4] -0.001 | Nexturastat A -0.107 | vemurafenib -0.005 | [5] -0.019 | [6] 0.004 | givinostat -0.001 | barasertib 0.009 | [7] 0.028 | volasertib 0.08 | [8] -0.013 | epoxomicin -0.019 | [9] 0.055 | [10] 0.049 | [11] -0.053 | rosiglitazone -0.035 | [12] -0.005 | [13] 0.071

RBBP7 isoform 2 (UniProt Q16576)
inactive: [1] 0.028 | [2] -0.016 | [3] 0.006 | [4] 0.042 | Nexturastat A -0.077 | vemurafenib 0.038 | [5] 0.014 | [6] -0.099 | givinostat -0.025 | barasertib 0.008 | [7] -0.041 | volasertib -0.076 | [8] -0.019 | epoxomicin 0.007 | [9] 0.017 | [10] -0.009 | [11] -0.01 | rosiglitazone 0.014 | [12] -0.048 | [13] 0.001

RAB6A isoform 2 (UniProt P20340)
inactive: [1] 0.01 | [2] 0.021 | [3] 0.031 | [4] -0.054 | Nexturastat A 0.03 | vemurafenib -0.039 | [5] 0.008 | [6] -0.003 | givinostat -0.011 | barasertib -0.021 | [7] -0.007 | volasertib 0.048 | [8] -0.021 | epoxomicin -0.047 | [9] 0.01 | [10] -0.054 | [11] -0.036 | rosiglitazone -0.002 | [12] -0.043 | [13] 0.076

RAC2 (UniProt P15153)
inactive: [1] 0.103 | [2] -0.001 | [3] -0.043 | [4] 0.002 | Nexturastat A -0.102 | vemurafenib -0.008 | [5] -0.043 | [6] 0.134 | givinostat -0.068 | barasertib -0.015 | [7] 0.028 | volasertib 0.022 | [8] -0.049 | epoxomicin 0.031 | [9] 0.013 | [10] -0.006 | [11] -0.078 | rosiglitazone -0.019 | [12] -0.047 | [13] 0.11

RAP1A (UniProt P62834)
inactive: [1] 0.012 | [2] -0.05 | [3] 0.003 | [4] -0.007 | Nexturastat A -0.074 | vemurafenib 0.051 | [5] -0.029 | [6] 0.018 | givinostat -0.02 | barasertib 0.021 | [7] 0.026 | volasertib 0.029 | [8] 0.011 | epoxomicin 0.001 | [9] 0.026 | [10] -0.006 | [11] 0.01 | rosiglitazone -0.01 | [12] -0.101 | [13] 0.123

RAD9A (UniProt Q99638)
inactive: [1] -0.013 | [2] 0.029 | [3] 0.072 | [4] 0.029 | Nexturastat A -0.023 | vemurafenib 0.034 | [5] -0.01 | [6] -0.052 | givinostat -0.024 | barasertib -0.007 | [7] -0.066 | volasertib -0.046 | [8] -0.061 | epoxomicin 0.025 | [9] -0.019 | [10] -0.109 | [11] -0.019 | rosiglitazone 0.01 | [12] -0.088 | [13] -0.038

RAB21 (UniProt Q9UL25)
inactive: [1] -0.001 | [2] -0.006 | [3] 0.028 | [4] -0.01 | Nexturastat A -0.081 | vemurafenib -0.067 | [5] 0.001 | [6] -0.036 | givinostat -0.023 | barasertib -0.018 | [7] 0.059 | volasertib 0.054 | [8] -0.028 | epoxomicin -0.075 | [9] 0.002 | [10] -0.002 | [11] 0.034 | rosiglitazone -0.002 | [12] -0.079 | [13] 0.005

RABEP1 (UniProt Q15276)
inactive: [1] 0.005 | [2] -0.034 | [3] 0.004 | [4] -0.006 | Nexturastat A 0.175 | vemurafenib 0.014 | [5] 0.038 | [6] 0.02 | givinostat 0.076 | barasertib 0.029 | [7] 0.037 | volasertib -0.128 | [8] -0.015 | epoxomicin -0.017 | [9] -0.026 | [10] -0.007 | [11] 0.016 | rosiglitazone 0.025 | [12] -0.032 | [13] -0.062

2 records drawn at random from those above:
RABEP1 (UniProt Q15276)
inactive: [1] 0.005 | [2] -0.034 | [3] 0.004 | [4] -0.006 | Nexturastat A 0.175 | vemurafenib 0.014 | [5] 0.038 | [6] 0.02 | givinostat 0.076 | barasertib 0.029 | [7] 0.037 | volasertib -0.128 | [8] -0.015 | epoxomicin -0.017 | [9] -0.026 | [10] -0.007 | [11] 0.016 | rosiglitazone 0.025 | [12] -0.032 | [13] -0.062

RAD9A (UniProt Q99638)
inactive: [1] -0.013 | [2] 0.029 | [3] 0.072 | [4] 0.029 | Nexturastat A -0.023 | vemurafenib 0.034 | [5] -0.01 | [6] -0.052 | givinostat -0.024 | barasertib -0.007 | [7] -0.066 | volasertib -0.046 | [8] -0.061 | epoxomicin 0.025 | [9] -0.019 | [10] -0.109 | [11] -0.019 | rosiglitazone 0.01 | [12] -0.088 | [13] -0.038

(cont.)

RAB13 (UniProt P51153)
inactive: [1] 0.099 | [2] 0.03 | [3] 0.001 | [4] 0.098 | Nexturastat A -0.228 | vemurafenib 0.171 | [5] 0.031 | [6] 0.029 | givinostat -0.025 | barasertib -0.007 | [7] -0.015 | volasertib 0.018 | [8] 0 | epoxomicin 0.093 | [9] 0.06 | [10] 0.021 | [11] 0.055 | rosiglitazone -0.008 | [12] -0.06 | [13] 0.185

RAB2A (UniProt P61019)
inactive: [1] 0.001 | [2] 0.001 | [3] -0.013 | [4] 0.004 | Nexturastat A -0.154 | vemurafenib 0.009 | [5] 0.031 | [6] -0.022 | givinostat 0.014 | barasertib -0.007 | [7] -0.022 | volasertib 0.053 | [8] -0.047 | epoxomicin -0.018 | [9] 0.028 | [10] -0.017 | [11] 0.01 | rosiglitazone 0.025 | [12] 0.011 | [13] -0.019

RACGAP1 (UniProt Q9H0H5)
inactive: [1] -0.035 | [2] -0.072 | [3] -0.023 | [4] -0.085 | Nexturastat A -0.07 | vemurafenib 0.082 | [5] 0.012 | [6] 0.066 | givinostat 0.03 | barasertib 0.021 | [7] -0.041 | volasertib -0.087 | [8] -0.023 | epoxomicin -0.05 | [9] -0.012 | [10] 0.061 | [11] 0.136 | rosiglitazone 0.035 | [12] 0.116 | [13] -0.313

RAB11A (UniProt P62491)
inactive: [1] -0.034 | [2] 0.017 | [3] -0.068 | [4] 0.034 | Nexturastat A -0.148 | vemurafenib -0.074 | [5] -0.164 | [6] 0.097 | givinostat 0.036 | barasertib 0.018 | [7] 0.066 | volasertib -0.005 | [8] -0.033 | epoxomicin 0.195 | [9] -0.026 | [10] 0.091 | [11] -0.054 | rosiglitazone -0.011 | [12] 0.084 | [13] -0.137

RAB7A (UniProt P51149)
inactive: [1] -0.024 | [2] 0.005 | [3] 0.004 | [4] -0.007 | Nexturastat A -0.009 | vemurafenib 0.003 | [5] -0.006 | [6] 0.001 | givinostat 0.007 | barasertib -0.004 | [7] 0.014 | volasertib 0.061 | [8] -0.024 | epoxomicin 0.005 | [9] 0.014 | [10] 0.006 | [11] -0.024 | rosiglitazone -0.023 | [12] -0.042 | [13] 0.023

RAD1 (UniProt O60671)
inactive: [1] 0.015 | [2] -0.005 | [3] 0.01 | [4] 0.043 | Nexturastat A -0.114 | vemurafenib -0.086 | [5] 0.02 | [6] -0.012 | givinostat -0.057 | barasertib 0 | [7] -0.001 | volasertib -0.034 | [8] -0.031 | epoxomicin -0.003 | [9] 0.03 | [10] -0.031 | [11] 0.059 | rosiglitazone 0.01 | [12] -0.022 | [13] -0.053

RBM26 isoform 3 (UniProt Q5T8P6)
inactive: [1] 0.017

RABGGTB (UniProt P53611)
inactive: [1] 0.068 | [2] 0.019 | [3] -0.004 | [4] 0.048 | Nexturastat A 0.023 | vemurafenib 0.036 | [5] 0.044 | [6] -0.021 | givinostat -0.028 | barasertib 0.034 | [7] -0.02 | volasertib -0.109 | [8] 0.008 | epoxomicin -0.017 | [9] -0.034 | [10] -0.04 | [11] -0.001 | rosiglitazone 0.069 | [12] -0.085 | [13] -0.009
